# Assay results: the supplement of paper PMC5949888
# Most values lie at the floor of the assay. Slopes are relative: functional sequences can read slightly below zero.
# Tested on: Saccharomyces cerevisiae PS128 hsf1 delta, HSF1(1-493) fusion
# Test: growth estimate (transactivation domain function in HSF1 fusion, heat-shock survival) (a.u. (slope of normalised read count over time)); higher = stronger growth at 37°C, i.e. more transactivation activity
# Details: library: random library
row,Substance,growth estimate
1,LFRAGEAYYFDLRH,< -0.25
2,EYEVAGHGGWFVWSNSITRR,< -0.25
3,SPPIRGESSVAL,< -0.25
4,ASSGTARHNVEITRIHCTPA,< -0.25
5,KQSRPQTQGYRLL,< -0.25
6,KDRPILGAKRAACSGESPMA,< -0.25
7,KIRE,< -0.25
8,LCRLIVEPPHISITTLVQRH,-0.25
9,GGVRRSTDHINDNQWEHLNP,< -0.25
10,FETPLFILTAKSVRAVGAHY,< -0.25
11,LRRKSIKRGPGLIWSRYHGL,-0.246
12,DYQFQHP,< -0.25
13,SHGGFRKETE,< -0.25
14,NGIEVSASPLQGCAVVQPLG,< -0.25
15,WSESPAAKARNRVRGLKKGA,< -0.25
16,HNR,< -0.25
17,VVLWRL,< -0.25
18,SGSSRNTSL,< -0.25
19,PISVHVLRGHGVTRELSGGC,< -0.25
20,IGKLGTAIPREEVLREVSQG,< -0.25
21,YTNSARILLSIR,< -0.25
22,PLISARRMDCRFCNQSANP,< -0.25
23,LRTMGGRASDPARSLM,< -0.25
24,EGRDASFR,< -0.25
25,LICYG,< -0.25
26,GTGLMTCPTRFRVSLLAPGS,< -0.25

# Looked up one by one from above, six records:
row,Substance,growth estimate
24,EGRDASFR,< -0.25
13,SHGGFRKETE,< -0.25
7,KIRE,< -0.25
6,KDRPILGAKRAACSGESPMA,< -0.25
21,YTNSARILLSIR,< -0.25
23,LRTMGGRASDPARSLM,< -0.25

# (list continues)

row,Substance,growth estimate
1,GPGGVPIYVVSAKDYGSIPA,< -0.25
2,SPFQELGPERVRLAGYERTE,< -0.25
3,TYNNPGRKTIFFYSYGDTGP,< -0.25
4,WQERRGH,< -0.25
5,RDSIQPHWSFSVSQRIWTRG,< -0.25
6,VSSPTGIERPVYPVLGFIMH,< -0.25
7,IGVHTIVEVLCRYELGFPGR,< -0.25
8,PDTGRRSHLGVRSLGDGRYE,< -0.25
9,LLGEPVETPRWWRSS,< -0.25
10,TMVRR,< -0.25
11,YLRIRHGVCAPFAPGHSGRS,< -0.25
12,SLPRYVAARDKA,< -0.25
13,TTPILRSHYLEGDK,< -0.25
14,NWWSTYSRRQRGPSRVHETP,< -0.25
15,RYVG,< -0.25
16,CKARLRLLR,< -0.25
17,NASGLVLNTQMIMAAMWKCC,< -0.25
18,LETEPPTCGRSFNRLIIFLA,< -0.25
19,GRGRKRHSFTSTLDRCSLVL,< -0.25
20,VRTYTVSS,< -0.25
21,GRDSRAVVLHGLFSPQEYAP,< -0.25
22,RIWFPSGMWRADWPQSNIGR,< -0.25
23,DAQCALLCWYRNRFRDCRRY,< -0.25
24,RCQGNRHSLP,< -0.25
25,WFIAHRRRSTRAVGSTYIRF,< -0.25
26,LVPPVHYIVKAQVYSDLGRG,< -0.25

row,Substance,growth estimate
1,GTLSSGYWCYRRGREAGFKA,< -0.25
2,RMKSPLVRAGELELSMPPQV,< -0.25
3,SGTTSSFSSLRSQGNGGHSW,< -0.25
4,LVRRLRCPDAATGTSVTPTA,< -0.25
5,LGRQYKSRGNAWRSHLGKQK,< -0.25
6,TLVNLTHLVHVRIHLPLQLF,< -0.25
7,LEFYGMDRKVAGPISERIGA,< -0.25
8,QVTCLGW,< -0.25
9,RTLIYPRLVANQRWSKFLRP,< -0.25
10,DGLVNNMATGPCAPLEAL,< -0.25
11,HSAENSRHKVHSLGRRFTAD,< -0.25
12,IILP,< -0.25
13,HMSCYTRVSSQSKGADTVAT,< -0.25
14,TVIYGE,< -0.25
15,TQEGGHSETVDEGGSWNSAL,< -0.25
16,VPSC,< -0.25
17,HGEVSTVRKRWSMTSETRLD,< -0.25
18,RASTREQAAWPWCSSCSAAL,< -0.25
19,QADNDTKTENSAIRRVKMSV,< -0.25
20,GLRQVVAH,< -0.25
21,QSYITPT,< -0.25
22,RGRGTSLCQDRELFPRKFLG,< -0.25
23,GSQNSTPSW,< -0.25
24,IGTMRGVFEDIGKIKRGMFE,< -0.25
25,VREGPVLGDARARVSSVWQV,< -0.25
26,GSGG,< -0.25

# Single values from the list.
# growth estimate, RGRGTSLCQDRELFPRKFLG is entered as < -0.25
# growth estimate, RTLIYPRLVANQRWSKFLRP is entered as < -0.25

# Following part:

row,Substance,growth estimate
1,RKSVVESGTGFIWSSG,< -0.25
2,MLRISMFCTLCSGPLPFGFP,< -0.25
3,ETPLAESSERLR,< -0.25
4,ENVSWEGDHCVPRVFSI,< -0.25
5,FKTQA,< -0.25
6,MIRNVRLYRQLERY,< -0.25
7,MMSAHH,< -0.25
8,ASVMKNTGQVGEFDGSTPGL,< -0.25
9,TPPAETIRSFL,-0.246
10,RDCAGYGPTGMSLRVLMRDR,< -0.25
11,SGGVLSDLLSATFSVHTQLV,< -0.25
12,RQRVGDNLP,< -0.25
13,IVSINGATGAGGSARTAGSS,< -0.25
14,SGITYP,< -0.25
15,LDGAKIPVNLTGYDESERLS,< -0.25
16,MSAKRIAVRISRVLGFQLAV,< -0.25
17,SPTRRGWLSRGVVKHW,< -0.25
18,CLCA,< -0.25
19,YARFPRVS,< -0.25
20,LGVFKLQRGHTHPRLAASNC,< -0.25
21,GMGLDHGLERPPTLPTVRCA,< -0.25
22,TPVLFSVGLQSRQVAGRESY,< -0.25
23,GRAAVTL,< -0.25
24,VLSALAFDLN,< -0.25
25,LRCPISL,< -0.25
26,IMGRLYLAYGPRL,< -0.25

row,Substance,growth estimate
1,AWWPLVESGGLIIYWRTRSP,< -0.25
2,VVLITSPKLCRSVGARGLER,< -0.25
3,MGFSPSFDLLSVLTLPLMSV,< -0.25
4,NQTVAGGLSMKIRFRRVLGT,< -0.25
5,VLEPPSFGGGELEVPCNNSG,< -0.25
6,CCLWFRFLGGSGG,< -0.25
7,RQGVPFYDKDLI,< -0.25
8,RSVRGHVQPVELWGVLE,< -0.25
9,EQAVWC,< -0.25
10,HSDSQVVGGLL,< -0.25
11,TDPWIQELRFFR,-0.201
12,VGGLD,< -0.25
13,PWFNRIRRFMGTGVFGCFSP,< -0.25
14,AFRLRQTPLIRQSQSRCYVV,< -0.25
15,RKASAYVRFCMHVRCVVQVL,< -0.25
16,STAGTAKIVAWLAGSSLLPC,< -0.25
17,TDVRRYLRRRGQLGGGVRHH,< -0.25
18,LLRPGSARGGIT,< -0.25
19,CRAPFIIAYFGHTLPRRMNV,< -0.25
20,LYRGHQPARCYGASDEEAAR,< -0.25
21,FVRSSNTRLIRGRLTSCPPP,< -0.25
22,TSYGKVSG,< -0.25
23,PGGF,< -0.25
24,PAGLS,< -0.25
25,RARVQPDGSAVAEVYRFWRS,< -0.25
26,WVCVFGSASCGYY,< -0.25

row,Substance,growth estimate
1,LRDQCNFIFWPSGQIRA,< -0.25
2,FVFQGLLTRSGQILVFVGSY,< -0.25
3,AYSRSYKGHLVTLARGVKQQ,< -0.25
4,GAGRLGGAAKPRCTLVPNRA,< -0.25
5,RTAPITLQMHTL,< -0.25
6,DFTSFKGSVIRVILGQKVRG,< -0.25
7,WDRGESVRVVPATCLIIFVR,< -0.25
8,RHRAHCSSRMKSEEFRAAST,< -0.25
9,IRVTCIRKSVVQGVGKS,< -0.25
10,IQGPYEHNHSTRYTLLPISC,< -0.25
11,NTRFWWT,< -0.25
12,PLI,< -0.25
13,GVLSWRTQDRGIAFRSVSYA,< -0.25
14,REYHAGNDVLKRQCKLLEAR,< -0.25
15,HVVVRPSLRPFIEFVQAPFL,< -0.25
16,NIP,< -0.25
17,GTSGSACSGVPGFVAQYWPW,0.316
18,YADVGILLGRDGQTECMI,< -0.25
19,HQPEHLTYVIRQSAGLGFIV,< -0.25
20,YGMATGLERTCGRRTCSGAC,< -0.25
21,VRPPQVEGARGRSTVKGEE,< -0.25
22,IALRSPGPTPSVGGVIMSAA,< -0.25
23,SQW,< -0.25
24,VGSSLARYIPLAQNTIFG,< -0.25
25,VLCE,< -0.25
